Results published in patent US20110112053A1, “PHARMACOLOGICAL TARGETING OF VASCULAR MALFORMATIONS” (University of Utah Research Foundation, priority 2008, published 2011).
For at least one compound, name, drawing or mass did not settle the structure.

Assays:
Format in all cases: cell-based, human
JNK = test: Immunoblot for phosphorylated and total JNK; conditions: control and CCM2 siRNA-treated cells; 10 μM simvastatin for 24 h
Experimental: MAPK Profiling. siRNA transfected cells were lysed in RIPA buffer (50 mM Tris pH 7.4, 150 mM NaCl, 1% NP-40) supplemented with protease and phosphatase inhibitors. Lysates were then analyzed by western blotting. Antibodies to phospho-JNK and total JNK were from Santa Cruz Biotechnology. Antibodies to phospho-ERK, phospho-p38, phospho-MKK4, phospho-MKK7, total ERK, total p38, total MKK4, and total MKK7 were from Cell Signaling Technology. The effect of ROCK inhibitor on JNK was tested by treating cells with 10 μM Y-27632 for 30 min prior to cell lysis. The effect of simvastatin on JNK was determined by treating cells with 10 μM simvastatin for 24 h prior to cell lysis.

HMVECs = test: Endothelial cell haptotaxis to fibronectin (modified Boyden chamber); conditions: CCM2-depleted HMVECs; 10 μM simvastatin 24 h before the assay
CCM2-depleted HMVECs = test: Phalloidin staining for actin stress fibers; conditions: control and CCM2 siRNA-treated endothelial cells; 40 μM simvastatin, 24 hours
Experimental: Immunofluorescent Cell Staining. Glass chamber slides were coated with human fibronectin (Biomedical Technologies, Inc.), and transfected cells were seeded at 50,000 cells per well. For the RhoA and ROCK experiment, cells were treated four days after seeding with 40 μg/mL of cell-permeable C3 transferase (Cytoskeleton, Inc.) or 20 μM Y-27632 for 4 hours. For the simvastatin experiment, cells were treated three days after seeding with 40 μM simvastatin (Calbiochem) or equivalent amounts of ethanol in growth media for 24 hours. Cells were fixed in 4% formaldehyde and incubated with an antibody against β-catenin (BD Biosciences). Fluorescent secondary antibody (Molecular Probes) was used to visualize β-catenin staining Actin cytoskeleton was visualized using fluorescently-conjugated phalloidin (Molecular Probes). Images were obtained with an Olympus FV300 confocal microscope.

Compound: CCC(C)(C)C(=O)O[C@H]1C[C@@H](C)C=C2C=C[C@H](C)[C@H](CC[C@@H]3C[C@@H](O)CC(=O)O3)[C@H]21 [simvastatin]
- phosphorylation of JNK (JNK): decreased the phosphorylation of JNK
- haptotactic migration (HMVECs): decreased haptotactic migration
- formation of actin stress fibers (CCM2-depleted HMVECs): reduced formation of actin stress fibers
